The values below come from PubChem BioAssay AID2685 (National Center for Advancing Translational Sciences (NCATS), 2010).

This test in a line: qHTS Assay for Lipid Storage Modulators in Drosophila S3 Cells.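 As to cell number change: cells counted by Cell Tracker Red CMTPX staining in the red channel.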 The note with it: BODIPY lipid droplet fluorescence, 18-24 h; for cell number change: measured here: cell count max response, cells fed with added oleic acid. An outline of the steps: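 Drosophila S3 cells loaded with oleic acid (400 uM, as added) and compounds at several concentrations; lipid droplets imaged by 488-nm laser-scanning cytometry, 500–530 nm intensity and object ratio to cell channel. Percent activity normalized to 20 uM Triacsin C.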

Setting [1] is: measured here: lipid fluorescence (Fed channel) AC50, cells fed with added oleic acid.
Setting [2] is: measured here: cell number channel AC50, cells fed with added oleic acid.

The other results are listed elsewhere or left out. Further columns of the screen follow, without active or inactive calls. The list favours compounds with an active or inconclusive main result. Words in brackets tell the shape of the fitted curve; partial curves, single points and poor fits give uncertain potencies.

The AC50 is the midpoint of the concentration-response curve, whichever way the signal moves. Take `Cc1ccc(/C=N/Nc2ncnc3nc[nH]c23)cc1`: the cell number change was -9%. The AC50 under setting [1] is 0.461 µM [rising, partial curve, poor fit].
`CCc1sc(C(=O)N2CCN(c3ccc(F)cc3)CC2)cc1C`: under setting [1], the AC50 is 3.66 µM [rising, partial curve].
As for `O=C(C1Cc2ccccc2CN1C(=O)c1ccco1)N1CCN(c2ccccc2)CC1` (stereo not drawn), the cell number change is -5.89%. Besides, under setting [1], the AC50 is 6.51 µM [rising, full curve, poor fit].
For `Cc1csc(NC(=O)CCc2ccc(S(=O)(=O)N3CCOCC3)cc2)n1`, the AC50 is, setting by setting: under setting [2], 2.59 µM [rising, partial curve]; under setting [1], 6.51 µM [rising, single point].
Regarding `CC(C)CC(=O)N1CCC(N(CCc2ccccc2)Cc2ccccc2)CC1`, the cell number change was -25.1%. Besides, the concentration at half-maximal activity (AC50) under setting [1] is 0.058 µM [falling, full curve, poor fit].
For the compound `CCOC(=O)C1(CCc2ccccc2)CCN(Cc2cccc3nccnc23)CC1`, the cell number change is -23%. Also, the AC50 under setting [1] was 20.6 µM [falling, single point].
As to `N#C/C(=C(/O)CCCl)c1ccccn1`, the cell number change is -44%. Further, the AC50 under setting [2] was 29.1 µM [falling, single point]. Further, the AC50 under setting [1] was 14.6 µM [falling, partial curve].
As to `Cn1nnnc1SCCNCc1ccccc1OCc1ccc(F)cc1`, the cell number change amounted to 32.1%. Under setting [2], the AC50 was 5.17 µM [rising, full curve, poor fit].
Consider `O=C(c1ccccc1)C(Cn1cncn1)C(Sc1ccccc1)c1ccccc1` (stereo not drawn), for which the cell number change is -7.05%. Further, the AC50 under setting [1] was 0.731 µM [rising, full curve].
Consider `COCCn1c(C)cc(/C=C2/NC(=O)N(c3ccc(Cl)cc3)C2=O)c1C`, for which the cell number change worked out at 20.4%. Further, the AC50 under setting [1] is 5.8 µM [rising, single point].
With `COc1cccc(COC(=O)C2CCN(C(=O)c3ccccc3C)CC2)c1OC`, the cell number change was 45%. The AC50 under setting [2] is 29.1 µM [rising, single point]. Besides, the AC50 under setting [1] was 32.6 µM [rising, partial curve].
In the case of `COc1ccc(CCN(C)C(=O)CSc2nc3ncc(Cl)cc3[nH]2)cc1OC`, the AC50 under setting [1] was 0.116 µM [rising, partial curve, poor fit].
Consider `Cc1ccc(Nc2nnc(-c3ccc(N4CCOCC4)c([N+](=O)[O-])c3)c3ccccc23)cc1`, for which the cell number change is -39.2%. Besides, under setting [2], the AC50 is 0.326 µM [falling, partial curve, poor fit]. Further, the AC50 under setting [1] is 25.9 µM [falling, single point].
For the compound `COc1cccc(/C=C/C(=O)NNC(=O)CCN2CCN(Cc3ccccc3)CC2)c1`, the cell number change was determined as 14.2%. Besides, the half-maximal activity concentration (AC50) under setting [1] is 23.1 µM [rising, single point].
For the compound `CC(=O)C1=C(C)N(Cc2ccccc2)C(=O)N[C@H]1CCc1ccccc1`, the cell number change came out at 14.3%. Also, the AC50 under setting [2] was 0.82 µM [falling, full curve, poor fit]. Further, the AC50 under setting [1] is 29.1 µM [rising, single point].
As to `Cn1c(=O)[nH]c(=O)c2c1nc(Br)n2CC(O)COc1ccc(Cl)cc1` (stereo not drawn), the cell number change came to 10.8%. The AC50 under setting [2] was 0.00461 µM [rising, full curve, poor fit].
As to `O=c1oc2ccccc2cc1-c1csc(Nc2nc3c(F)cccc3s2)n1`, the cell number change was 16.8%. Besides, under setting [1], the AC50 was 20.6 µM [rising, single point].
Regarding `COc1ccccc1/C=N/NC(=O)c1cccc(OC(F)(F)C(F)F)c1`, the cell number change was -19.4%. Moreover, the AC50 under setting [2] was 3.26 µM [rising, single point]. Besides, the AC50 under setting [1] is 4.11 µM [rising, partial curve, poor fit].
On to `COc1ccc(/C=C2\SC(=O)N(CCc3nnc(N)s3)C2=O)cc1`, for which the cell number change was 17.5%. The half-maximal activity concentration (AC50) under setting [1] was 0.461 µM [rising, full curve, poor fit].
On to `Oc1ccc(-c2nccc(-c3ccc(F)cc3)n2)cc1`, for which the cell number change was -17.5%. Further, the AC50 under setting [1] was 29.1 µM [falling, single point].
As to `COc1ccc(C(C#N)c2ccc(=O)[nH]n2)cc1` (stereo not drawn), the cell number change came to 9.55%. In addition, under setting [1], the concentration at half-maximal activity (AC50) was 0.092 µM [rising, full curve, poor fit].
Take `O=C(CSc1ccccc1)NCCc1ccccc1`: the cell number change was 0.647%. Further, the concentration at half-maximal activity (AC50) under setting [2] was 5.8 µM [rising, partial curve].
For `O=C(COc1ccc(S(=O)(=O)N2CCOCC2)cc1Cl)NCC1CCCO1` (stereo not drawn), the cell number change worked out at 16%.
Take `O=C(Nc1ccc2c(c1)OCO2)c1noc2c1CCCCC2`: the cell number change is -7.43%. Further, the AC50 under setting [1] was 16.4 µM [rising, single point].
For the compound `CSc1ccccc1NC(=O)c1cccs1`, the cell number change was -31.5%. For the same compound, the AC50 under setting [2] is 32.6 µM [falling, single point]. Moreover, under setting [1], the half-maximal activity concentration (AC50) is 20.6 µM [falling, single point].
Regarding `COC(=O)C1C(=O)C2=C(CC1C)NC(C)=C(C(=O)OC1CCCC1)C2c1ccc(N(C)C)cc1` (stereo not drawn), the cell number change is -34.9%. For the same compound, the AC50 under setting [2] is 9.2 µM [falling, partial curve].
As for `Cc1cccc2c(N=Nc3ccc(S(=O)(=O)Nc4cccc(Cl)c4)cc3[N+](=O)[O-])c(O)[nH]c12`, the cell number change is 0.955%. For the same compound, the AC50 under setting [1] was 29.1 µM [falling, single point].
On to `CSc1cccc(N2CC(C(=O)Nc3cccc(S(=O)(=O)N4CCCC4)c3)CC2=O)c1` (stereo not drawn), for which, under setting [2], the concentration at half-maximal activity (AC50) is 6.51 µM [rising, single point].
As for `CC(=O)CSc1nnc(-c2ccncc2)n1C`, the cell number change was -103%. Further, the AC50 under setting [2] was 7.31 µM [falling, partial curve]. Besides, the half-maximal activity concentration (AC50) under setting [1] is 18.4 µM [falling, partial curve].
In the case of `COc1ccc(CC(=O)Nc2sc3c(c2C(N)=O)CCCC3)cc1OC`, the cell number change came out at 4.17%.
On to `COC(=O)c1cccc(N(C(=O)c2ccco2)C(C(=O)NC2CCCC2)c2ccc(N3CCOCC3)cc2)c1` (stereo not drawn), for which the cell number change was 15.8%. The AC50 under setting [2] was 0.259 µM [rising, partial curve, poor fit].
Regarding `O=C(COC(=O)Cc1cccc(C(F)(F)F)c1)NC1CC1`, the half-maximal activity concentration (AC50) under setting [2] is 0.651 µM [rising, full curve, poor fit].
Consider `O=C(NCc1ccc(F)cc1)c1cccc2c1C(=O)N(Cc1cccnc1)C2`, for which the cell number change was -34.5%. Moreover, under setting [2], the AC50 is 8.2 µM [falling, partial curve]. Besides, under setting [1], the concentration at half-maximal activity (AC50) was 29.1 µM [falling, single point].
Consider `COC(=O)Cn1cc(C(=O)OC)c2ccccc21`, for which the AC50 by setting is: under setting [2], 0.206 µM [falling, full curve, poor fit]; under setting [1], 23.1 µM [falling, partial curve].
`CCCN(Cc1ccccc1)C(=S)Nc1ccc(OCC)cc1`: the cell number change stood at 60.2%. The AC50 under setting [2] was 8.2 µM [rising, partial curve]. Also, under setting [1], the AC50 is 16.4 µM [rising, partial curve].
As for `CNc1ccccc1C(C)(C)c1cn(-c2ccc([N+](=O)[O-])cc2)nn1`, the cell number change is -16.5%. For the same compound, the AC50 under setting [1] was 3.66 µM [falling, single point].
In the case of `COc1ccc(S(=O)(=O)N2CCCN(CC(=O)Nc3ccc4c(c3)OCO4)CC2)cc1`, the cell number change is 13.5%. The AC50 under setting [1] was 6.51 µM [falling, single point].
With `CN(CC(=O)Nc1ccc(F)c(F)c1F)C(=O)CCc1nc2sc3c(c2c(=O)[nH]1)CCCC3`, the cell number change is -0.838%. The AC50 under setting [1] was 4.61 µM [rising, partial curve, poor fit].
`Cc1noc(NS(=O)(=O)c2ccc(NC(=O)c3cnc4scc(C)n4c3=O)cc2)c1C`: the AC50 under setting [2] was 0.651 µM [rising, single point].
In the case of `Cn1ccnc1SCc1cc(=O)[nH]c2ccccc12`, the AC50 under setting [1] was 16.4 µM [rising, partial curve].
With `O=C(NC1CCCC1)c1cc(S(=O)(=O)N2CCOCC2)c(Cl)cc1Cl`, the cell number change amounted to 78.8%. Under setting [2], the AC50 was 16.4 µM [rising, single point].
Regarding `O=C(c1cccc(Cl)c1)N1CCN(c2ccc(N3CCOCC3)nn2)CC1`, the cell number change came to 11.5%.
`COc1ccc(CNC(=O)C2CCN(C(=O)c3csc(Nc4ccc(C)cc4)n3)CC2)cc1`: the cell number change is -1.39%. Besides, under setting [1], the AC50 is 4.11 µM [rising, full curve].
With `CCCc1cc(=O)[nH]c2nnc(SCC(=O)Nc3nccs3)n12`, the cell number change was -50.5%. Further, the AC50 under setting [2] was 5.8 µM [falling, partial curve, poor fit]. Under setting [1], the AC50 is 29.1 µM [falling, partial curve].
Regarding `CCn1c(SCC(=O)NCc2cccs2)nnc1-c1ccco1`, the cell number change is 4.58%. Moreover, under setting [2], the AC50 was 0.58 µM [falling, single point].
Turning to `O=C(O)c1cccc(NS(=O)(=O)c2ccc(-c3ccc(S(=O)(=O)Nc4cccc(C(=O)O)c4)cc3)cc2)c1`, the cell number change is -15.9%. The AC50 under setting [2] was 0.92 µM [falling, full curve, poor fit].
Regarding `CCOC(=O)c1c(-c2cccc([N+](=O)[O-])c2)csc1NC(=O)CCCOc1ccccc1`, the cell number change was -20.6%. In addition, the concentration at half-maximal activity (AC50) under setting [1] was 0.00461 µM [falling, full curve, poor fit].
As for `C#CCOc1c(Cl)cc(/C=N/NC(N)=S)cc1OCC`, the cell number change is 39.5%.
Take `COc1ccc(N(C(C)=O)S(=O)(=O)c2cccc3cccnc23)cc1`: the cell number change is -66.7%. For the same compound, under setting [2], the AC50 is 1.84 µM [falling, partial curve]. Further, the AC50 under setting [1] is 5.8 µM [rising, partial curve].
Turning to `O=C(Cn1nnc(-c2ccccc2)n1)NNC(=O)c1cccc([N+](=O)[O-])c1`, the cell number change is -8.73%. Further, the concentration at half-maximal activity (AC50) under setting [1] was 29.1 µM [rising, single point].
Turning to `Cc1ccccc1OCC(=O)N/N=C/c1cc2ccccc2nc1Cl`, the cell number change came to 1.87%. Besides, under setting [1], the AC50 is 0.58 µM [rising, full curve, poor fit].
Regarding `CCCCNC(=O)C1CCCN(S(=O)(=O)c2ccc(-n3cnnn3)cc2)C1` (stereo not drawn), the cell number change is 16.3%.
Turning to `CCCOP(=O)(c1ccc(N(C)C)cc1)C(O)c1cc(OC)c(OC)c(OC)c1` (stereo not drawn), the cell number change stood at 28.5%. Also, under setting [1], the AC50 was 14.6 µM [rising, partial curve, poor fit].
For `CCn1c(O)c(/C=C2\C=Nc3ccccc32)sc1=Nc1ccccc1`, the cell number change is -13.1%. Further, the AC50 under setting [1] was 0.058 µM [falling, full curve, poor fit].
In the case of `COc1ccc(CNC(=S)Nc2ccccc2C)cc1`, the AC50 by setting is: under setting [2], 0.13 µM [rising, full curve, poor fit]; under setting [1], 1.16 µM [rising, partial curve].
With `O=C(COc1ccc(Cl)cc1)N1CCN(S(=O)(=O)c2ccccc2)CC1`, the cell number change turned out to be 112%. For the same compound, the AC50 under setting [2] was 2.06 µM [rising, full curve]. The AC50 under setting [1] was 4.11 µM [rising, partial curve].
